From patent publication EP0664129A2, “Epicholesterol for treating dyslipidemia” (PHARMACIA S.p.A., priority 1994, dated 1995) come the findings set out here.

The nature of the data set: Gas liquid chromatography of unesterified sterols in plasma and liver of mice fed enriched diets. Conditions: 1.5% sterol enriched diet, Mean ± SD, n=3; for Percent Distribution Dihydrocholesterol (unesterified sterol content): nd: not detectable. It is filed as in vivo. As for the experimental part:
Male Sprague Dawley rats weighing 250 g and male CD mice weighing 22-25 g (Charles River) were housed in rooms maintained at 21±1°C with relative humidity 50-60% and a 12 hours light-dark cycle. After a week of housing, the animals were allocated to the different experimental groups and received one of the following diets: • a) rat or mouse chow diet, containing 0.5% sodium cholate; • b) cholesterol enriched diet, containing 0.5% sodium cholate and 1.5% cholesterol; • c) epicholesterol enriched diet, containing 0.5% sodium cholate and 1.5% epicholesterol; • d) epicholesterol and cholesterol enriched diet containing 0.5% sodium cholate and 1.5% of both sterols. Weight of the animals and food consumption were recorded daily.
After overnight fasting, the animals were anesthetized with sodium pentobarbital (50 mg/kg body weight) and exsanguinated from the abdominal aorta. Plasma was obtained by low speed (3000 g for 10 min) centrifugation of whole blood containing Na₂EDTA as anticoagulant.
Plasma lipid extracts were prepared according to Bligh E.G., Dyer W.J., Can. J. Bioch. Physiol, 31, 911, 1959.
Liver specimens (500 mg) were excised from the lateral liver lobe, washed in ice-cold saline, and immediately placed on dry-ice and stored at -80°C. They were extracted according to the method of Folch J. et al., J. Biol. Chem. , 226, 497, 1957, as modified by Carlson L.A., J. Atheroscler. Res., 3, 334, 1963.
Lipids extract from plasma and liver were separated by TLC on Silica Gel plates from Merck using petroleum ether 40-70°/diethyl ether/acetic acid (80:20:1) as developing system. Cholesterol, epicholesterol, dihydrocholesterol, and 7-keto-cholesterol as representative of the oxysterol class of sterols migrated with very similar Rf and could be recovered as a single area from the TLC plate. These sterols were eluted from the silica using chloroform and were dried by evaporation under N₂. The samples were redissolved in pyridine and derivatizated adding an equal volume of MBSTFA [N-methyl-N(tert-butyldimethylsilyl)Trifluoroacetamide].
After 20 minutes at room temperature the samples were analyzed by GLC according to Smith N.B., Lipids, 17, 464, 1982, on a Carlo Erba Mega 3000 gaschromatographer equipped with a flame ionization detector and a 25 m OV1 column (0.2 mm id., film thickness 0.2-0.25). He was used as carrier at 100 Kps. The splitless injection technique was used and 1-2 µl sample were injected. […] The injection and the detector temperatures were respectively 340°C and 350°C. Retention time of cholesterol, epicholesterol, dihydrocholesterol and 7keto-cholesterol were determined by injecting pure sterols.

For the compound `CC(C)CCC[C@@H](C)[C@H]1CC[C@H]2[C@@H]3CC=C4C[C@H](O)CC[C@]4(C)[C@H]3CC[C@]12C` [Epicholesterol, cholest-5-en-3α-ol], for the setting “mice liver”, the “Percent Distribution Cholesterol (unesterified sterol content)” value (“Percent Distribution Cholesterol” below) stood at 75.7±4.5%, the “Percent Distribution Oxysterols (unesterified sterol content)” value (“Percent Distribution Oxysterols” for short) amounted to 14.3±5.8% and the “Percent Distribution Dihydrocholesterol (unesterified sterol content)” value is recorded as 9.0±1.5%. Also, for the setting “mice plasma”, the “Percent Distribution Cholesterol” value came out at 87.4±1.0%, the “Percent Distribution Oxysterols” value came out at 1.5±1.3% and the “Percent Distribution Dihydrocholesterol (unesterified sterol content)” value was 8.5±0.9%.

Consider `CC(C)CCC[C@@H](C)[C@H]1CC[C@H]2[C@@H]3CC=C4C[C@@H](O)CC[C@]4(C)[C@H]3CC[C@]12C` [Cholesterol], for which, under “mice liver”, the “Percent Distribution Cholesterol” value is on record as 83.6±7.7% and the “Percent Distribution Oxysterols” value is given as 16.4±7.7%. For the same compound, where the note is “mice plasma”, the “Percent Distribution Cholesterol” value is given as 97.4±0.8% and the “Percent Distribution Oxysterols” value is 3.3±1.9%.
